Data as given in article PMC9481976.
Results are given in words; binding and its absence hold for the method and conditions named. In cells and extracts the contact can be indirect. These calls come from enrichment with a bait or labelling near it, and not all partners need be listed. Sequences can lack the tags named with a protein.

Protein sequences, listed by entry. Tags and fused reporters are not part of them.
UniProt Q96RT7: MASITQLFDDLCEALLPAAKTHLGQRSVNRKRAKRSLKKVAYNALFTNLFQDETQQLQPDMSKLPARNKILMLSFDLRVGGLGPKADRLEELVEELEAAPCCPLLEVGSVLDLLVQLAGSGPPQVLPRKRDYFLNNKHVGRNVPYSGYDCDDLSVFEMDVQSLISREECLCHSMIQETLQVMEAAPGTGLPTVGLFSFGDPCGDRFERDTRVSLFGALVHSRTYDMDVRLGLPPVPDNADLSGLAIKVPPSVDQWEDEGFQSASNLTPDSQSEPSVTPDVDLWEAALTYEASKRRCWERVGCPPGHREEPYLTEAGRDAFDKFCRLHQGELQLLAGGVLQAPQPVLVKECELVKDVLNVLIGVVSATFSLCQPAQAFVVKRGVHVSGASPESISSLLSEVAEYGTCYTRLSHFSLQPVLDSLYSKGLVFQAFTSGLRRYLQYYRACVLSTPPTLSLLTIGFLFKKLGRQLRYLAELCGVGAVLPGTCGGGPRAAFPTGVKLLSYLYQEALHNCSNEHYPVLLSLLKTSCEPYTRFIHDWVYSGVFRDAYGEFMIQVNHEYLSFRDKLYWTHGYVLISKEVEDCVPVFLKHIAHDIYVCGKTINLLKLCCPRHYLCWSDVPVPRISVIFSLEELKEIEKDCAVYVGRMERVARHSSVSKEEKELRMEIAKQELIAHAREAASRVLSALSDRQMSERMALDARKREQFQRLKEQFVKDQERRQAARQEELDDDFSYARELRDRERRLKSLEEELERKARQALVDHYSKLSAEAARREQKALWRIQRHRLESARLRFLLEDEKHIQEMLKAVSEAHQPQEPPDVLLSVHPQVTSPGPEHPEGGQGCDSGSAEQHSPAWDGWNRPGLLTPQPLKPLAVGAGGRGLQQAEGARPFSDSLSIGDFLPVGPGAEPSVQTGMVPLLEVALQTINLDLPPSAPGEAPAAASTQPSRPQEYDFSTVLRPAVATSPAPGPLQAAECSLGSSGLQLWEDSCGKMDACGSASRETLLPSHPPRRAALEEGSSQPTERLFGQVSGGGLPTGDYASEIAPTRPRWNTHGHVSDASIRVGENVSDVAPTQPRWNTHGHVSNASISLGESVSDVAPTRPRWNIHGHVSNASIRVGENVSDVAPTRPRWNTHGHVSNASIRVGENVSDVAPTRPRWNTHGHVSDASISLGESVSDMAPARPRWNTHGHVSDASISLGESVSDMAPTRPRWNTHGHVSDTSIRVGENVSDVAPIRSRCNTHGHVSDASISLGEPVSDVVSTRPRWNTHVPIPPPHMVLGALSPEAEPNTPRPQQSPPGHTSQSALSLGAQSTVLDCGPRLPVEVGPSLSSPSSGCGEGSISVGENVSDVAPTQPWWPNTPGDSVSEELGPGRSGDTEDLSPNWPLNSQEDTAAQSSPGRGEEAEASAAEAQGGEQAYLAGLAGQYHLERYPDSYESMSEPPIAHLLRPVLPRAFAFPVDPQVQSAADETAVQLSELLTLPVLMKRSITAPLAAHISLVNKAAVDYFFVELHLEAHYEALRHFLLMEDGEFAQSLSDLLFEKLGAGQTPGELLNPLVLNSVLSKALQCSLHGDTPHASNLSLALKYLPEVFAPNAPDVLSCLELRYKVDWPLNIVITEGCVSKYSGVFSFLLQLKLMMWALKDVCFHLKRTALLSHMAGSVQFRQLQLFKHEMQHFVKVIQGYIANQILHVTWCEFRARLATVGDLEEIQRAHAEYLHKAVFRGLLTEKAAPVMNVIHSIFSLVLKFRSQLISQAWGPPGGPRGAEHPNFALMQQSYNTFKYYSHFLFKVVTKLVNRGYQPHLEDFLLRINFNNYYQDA
UniProt Q15154: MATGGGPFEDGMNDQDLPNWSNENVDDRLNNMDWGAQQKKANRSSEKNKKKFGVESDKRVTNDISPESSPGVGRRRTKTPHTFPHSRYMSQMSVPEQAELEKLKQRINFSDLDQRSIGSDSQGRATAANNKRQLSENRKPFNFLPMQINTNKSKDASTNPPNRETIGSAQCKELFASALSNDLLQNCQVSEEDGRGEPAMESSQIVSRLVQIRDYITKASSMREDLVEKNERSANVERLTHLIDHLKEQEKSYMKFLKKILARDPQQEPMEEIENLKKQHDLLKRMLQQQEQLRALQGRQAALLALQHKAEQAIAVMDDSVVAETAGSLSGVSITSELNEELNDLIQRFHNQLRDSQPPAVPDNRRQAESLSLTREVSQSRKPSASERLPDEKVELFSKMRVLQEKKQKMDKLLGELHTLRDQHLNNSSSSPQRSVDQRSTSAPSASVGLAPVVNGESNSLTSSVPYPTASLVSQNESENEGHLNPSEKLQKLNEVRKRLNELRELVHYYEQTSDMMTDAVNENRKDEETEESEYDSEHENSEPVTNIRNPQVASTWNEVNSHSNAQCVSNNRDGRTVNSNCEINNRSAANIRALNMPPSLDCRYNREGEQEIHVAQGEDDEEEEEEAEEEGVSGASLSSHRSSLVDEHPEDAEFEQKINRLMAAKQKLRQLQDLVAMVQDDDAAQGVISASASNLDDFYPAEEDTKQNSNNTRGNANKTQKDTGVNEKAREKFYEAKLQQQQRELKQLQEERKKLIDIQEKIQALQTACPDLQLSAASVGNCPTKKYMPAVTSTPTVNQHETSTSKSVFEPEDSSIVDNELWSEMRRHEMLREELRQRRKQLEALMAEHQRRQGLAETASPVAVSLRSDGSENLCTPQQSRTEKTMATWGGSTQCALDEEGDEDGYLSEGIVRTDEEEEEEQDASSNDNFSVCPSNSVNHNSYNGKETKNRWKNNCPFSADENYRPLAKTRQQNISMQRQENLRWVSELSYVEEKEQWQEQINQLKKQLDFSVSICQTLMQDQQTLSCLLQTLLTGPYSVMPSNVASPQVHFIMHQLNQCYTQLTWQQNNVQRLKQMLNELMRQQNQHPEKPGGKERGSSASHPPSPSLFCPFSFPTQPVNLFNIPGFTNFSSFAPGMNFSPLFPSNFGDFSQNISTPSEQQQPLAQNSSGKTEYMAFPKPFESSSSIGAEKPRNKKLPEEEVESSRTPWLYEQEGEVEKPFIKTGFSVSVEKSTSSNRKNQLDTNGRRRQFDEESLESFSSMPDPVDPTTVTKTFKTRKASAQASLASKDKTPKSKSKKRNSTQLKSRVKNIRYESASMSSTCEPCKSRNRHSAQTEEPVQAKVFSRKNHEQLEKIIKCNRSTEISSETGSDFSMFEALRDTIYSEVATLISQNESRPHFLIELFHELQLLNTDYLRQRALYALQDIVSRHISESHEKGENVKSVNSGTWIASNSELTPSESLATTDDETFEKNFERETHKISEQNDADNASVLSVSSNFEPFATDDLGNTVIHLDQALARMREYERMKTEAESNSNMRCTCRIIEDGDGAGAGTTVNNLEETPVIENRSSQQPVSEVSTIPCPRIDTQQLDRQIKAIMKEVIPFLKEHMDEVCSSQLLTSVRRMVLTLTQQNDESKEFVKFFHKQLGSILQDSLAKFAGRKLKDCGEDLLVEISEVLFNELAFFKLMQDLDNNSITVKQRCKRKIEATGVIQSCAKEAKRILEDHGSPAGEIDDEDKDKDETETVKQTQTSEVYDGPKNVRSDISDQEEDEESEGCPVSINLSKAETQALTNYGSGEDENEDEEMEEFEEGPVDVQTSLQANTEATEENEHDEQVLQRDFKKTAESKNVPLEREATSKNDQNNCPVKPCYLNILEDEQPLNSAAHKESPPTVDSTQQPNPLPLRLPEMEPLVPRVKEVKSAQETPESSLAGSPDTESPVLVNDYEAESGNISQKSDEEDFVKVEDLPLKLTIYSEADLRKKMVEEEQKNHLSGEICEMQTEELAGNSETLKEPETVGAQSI
UniProt O15078: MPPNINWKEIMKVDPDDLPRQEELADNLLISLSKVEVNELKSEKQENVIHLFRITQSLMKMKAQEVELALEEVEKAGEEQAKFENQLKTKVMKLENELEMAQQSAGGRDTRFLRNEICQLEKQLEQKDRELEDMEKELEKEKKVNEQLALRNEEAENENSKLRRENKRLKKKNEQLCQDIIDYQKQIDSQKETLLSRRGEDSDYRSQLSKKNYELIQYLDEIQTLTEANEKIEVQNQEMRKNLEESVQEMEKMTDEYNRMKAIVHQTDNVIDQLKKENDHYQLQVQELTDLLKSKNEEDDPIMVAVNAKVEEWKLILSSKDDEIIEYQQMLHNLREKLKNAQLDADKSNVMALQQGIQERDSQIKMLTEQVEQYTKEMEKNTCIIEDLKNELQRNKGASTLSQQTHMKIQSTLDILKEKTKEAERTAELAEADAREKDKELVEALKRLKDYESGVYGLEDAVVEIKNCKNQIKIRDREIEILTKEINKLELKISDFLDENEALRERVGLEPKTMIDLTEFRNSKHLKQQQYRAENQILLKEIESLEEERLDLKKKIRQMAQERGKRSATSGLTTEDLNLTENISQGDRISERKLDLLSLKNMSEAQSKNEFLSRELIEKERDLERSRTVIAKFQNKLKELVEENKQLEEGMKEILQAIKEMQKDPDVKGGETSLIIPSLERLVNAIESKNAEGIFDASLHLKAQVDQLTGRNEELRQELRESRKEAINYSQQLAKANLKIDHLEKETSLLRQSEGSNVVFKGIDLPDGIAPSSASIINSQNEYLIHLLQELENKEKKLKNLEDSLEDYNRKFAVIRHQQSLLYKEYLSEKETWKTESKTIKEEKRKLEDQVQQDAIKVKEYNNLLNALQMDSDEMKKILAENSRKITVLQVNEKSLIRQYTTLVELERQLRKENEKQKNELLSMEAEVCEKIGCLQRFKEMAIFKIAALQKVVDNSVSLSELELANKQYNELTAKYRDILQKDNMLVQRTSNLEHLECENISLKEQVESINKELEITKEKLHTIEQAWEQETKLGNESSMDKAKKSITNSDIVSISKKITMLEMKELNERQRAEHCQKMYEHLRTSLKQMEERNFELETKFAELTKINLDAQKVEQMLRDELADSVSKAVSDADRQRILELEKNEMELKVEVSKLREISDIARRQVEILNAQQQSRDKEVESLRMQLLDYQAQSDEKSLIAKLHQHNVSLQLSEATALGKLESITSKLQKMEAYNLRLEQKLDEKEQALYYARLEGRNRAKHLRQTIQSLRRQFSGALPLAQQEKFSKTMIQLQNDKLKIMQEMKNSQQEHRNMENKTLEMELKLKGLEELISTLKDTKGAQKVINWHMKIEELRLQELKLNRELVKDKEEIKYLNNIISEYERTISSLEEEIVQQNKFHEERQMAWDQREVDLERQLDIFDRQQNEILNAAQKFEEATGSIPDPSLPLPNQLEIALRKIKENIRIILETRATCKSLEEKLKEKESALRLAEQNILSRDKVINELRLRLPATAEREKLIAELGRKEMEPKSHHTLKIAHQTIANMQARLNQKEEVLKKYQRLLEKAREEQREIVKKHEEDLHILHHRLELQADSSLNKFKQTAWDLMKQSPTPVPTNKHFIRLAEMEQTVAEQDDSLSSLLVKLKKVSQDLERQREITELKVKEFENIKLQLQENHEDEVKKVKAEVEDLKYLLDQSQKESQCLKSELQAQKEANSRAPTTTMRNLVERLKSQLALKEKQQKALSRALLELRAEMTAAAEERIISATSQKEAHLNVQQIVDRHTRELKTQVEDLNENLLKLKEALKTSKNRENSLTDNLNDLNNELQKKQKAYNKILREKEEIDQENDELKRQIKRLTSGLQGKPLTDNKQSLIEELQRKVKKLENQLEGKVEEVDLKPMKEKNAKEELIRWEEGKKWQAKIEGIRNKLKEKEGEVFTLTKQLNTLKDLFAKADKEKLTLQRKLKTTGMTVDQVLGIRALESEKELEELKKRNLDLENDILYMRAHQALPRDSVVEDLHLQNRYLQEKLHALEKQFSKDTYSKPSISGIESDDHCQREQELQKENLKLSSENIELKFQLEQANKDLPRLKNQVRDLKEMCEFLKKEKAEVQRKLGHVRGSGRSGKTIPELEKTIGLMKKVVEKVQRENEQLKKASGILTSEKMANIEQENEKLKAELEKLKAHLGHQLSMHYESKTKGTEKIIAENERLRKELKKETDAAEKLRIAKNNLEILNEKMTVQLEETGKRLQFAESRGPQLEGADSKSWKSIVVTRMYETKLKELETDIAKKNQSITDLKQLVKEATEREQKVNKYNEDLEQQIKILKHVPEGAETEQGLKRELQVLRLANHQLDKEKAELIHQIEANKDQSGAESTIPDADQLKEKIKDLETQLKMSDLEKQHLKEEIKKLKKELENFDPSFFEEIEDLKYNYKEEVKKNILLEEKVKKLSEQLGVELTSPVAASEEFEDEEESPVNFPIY

T1: CFAP53-bioGFP (human CFAP53 with C-terminal biotinylated GFP) (human) (UniProt Q96M91)
T1 sequence (chain, biotin on the BirA substrate linker (biotin ligase BirA co-expressed)): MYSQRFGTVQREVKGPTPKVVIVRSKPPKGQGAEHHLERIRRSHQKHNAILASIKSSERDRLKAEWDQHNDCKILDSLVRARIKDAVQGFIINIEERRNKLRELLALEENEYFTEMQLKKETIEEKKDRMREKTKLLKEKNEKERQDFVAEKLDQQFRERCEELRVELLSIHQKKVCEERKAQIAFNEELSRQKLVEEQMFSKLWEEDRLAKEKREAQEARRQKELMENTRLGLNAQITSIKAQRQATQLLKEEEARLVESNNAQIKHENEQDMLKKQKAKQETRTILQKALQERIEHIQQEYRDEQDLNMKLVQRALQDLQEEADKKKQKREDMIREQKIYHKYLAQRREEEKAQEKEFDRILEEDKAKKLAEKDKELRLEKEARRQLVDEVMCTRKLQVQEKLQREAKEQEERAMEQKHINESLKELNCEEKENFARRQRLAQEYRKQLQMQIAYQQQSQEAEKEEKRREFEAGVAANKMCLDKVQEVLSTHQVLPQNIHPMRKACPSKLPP

T2: bioGFP-CFAP53 (human CFAP53 with N-terminal biotinylated GFP) (human) (UniProt Q96M91)
T2 sequence (chain, biotin on the BirA substrate linker (biotin ligase BirA co-expressed)): T1 sequence (chain, biotin on the BirA substrate linker (biotin ligase BirA co-expressed))

B1: HAUS1 (protein, UniProt Q96CS2 1-278)
chain: MEPQEERETQVAAWLKKIFGDHPIPQYEVNPRTTEILHHLSERNRVRDRDVYLVIEDLKQKASEYESEAKYLQDLLMESVNFSPANLSSTGSRYLNALVDSAVALETKDTSLASFIPAVNDLTSDLFRTKSKSEEIKIELEKLEKNLTATLVLEKCLQEDVKKAELHLSTERAKVDNRRQNMDFLKAKSEEFRFGIKAAEEQLSARGMDASLSHQSLVALSEKLARLKQQTIPLKKKLESYLDLMPNPSLAQVKIEEAKRELDSIEAELTRRVDMMEL
B2: CEP131 (protein, UniProt Q9UPN4 1-1083)
chain: MKGTRAIGSVPERSPAGVDLSLTGLPPPVSRRPGSAATTKPIVRSVSVVTGSEQKRKVLEATGPGGSQAINNLRRSNSTTQVSQPRSGSPRPTEPTDFLMLFEGSPSGKKRPASLSTAPSEKGATWNVLDDQPRGFTLPSNARSSSALDSPAGPRRKECTVALAPNFTANNRSNKGAVGNCVTTMVHNRYTPSERAPPLKSSNQTAPSLNNIIKAATCEGSESSGFGKLPKNVSSATHSARNNTGGSTGLPRRKEVTEEEAERFIHQVNQATVTIQRWYRHQVQRRGAGAARLEHLLQAKREEQRQRSGEGTLLDLHQQKEAARRKAREEKARQARRAAIQELQQKRALRAQKASTAERGPPENPRETRVPGMRQPAQELSPTPGGTAHQALKANNTGGGLPAAGPGDRCLPTSDSSPEPQQPPEDRTQDVLAQDAAGDNLEMMAPSRGSAKSRGPLEELLHTLQLLEKEPDVLPRPRTHHRGRYAWASEVTTEDDASSLTADNLEKFGKLSAFPEPPEDGTLLSEAKLQSIMSFLDEMEKSGQDQLDSQQEGWVPEAGPGPLELGSEVSTSVMRLKLEVEEKKQAMLLLQRALAQQRDLTARRVKETEKALSRQLQRQREHYEATIQRHLAFIDQLIEDKKVLSEKCEAVVAELKQEDQRCTERVAQAQAQHELEIKKLKELMSATEKARREKWISEKTKKIKEVTVRGLEPEIQKLIARHKQEVRRLKSLHEAELLQSDERASQRCLRQAEELREQLEREKEALGQQERERARQRFQQHLEQEQWALQQQRQRLYSEVAEERERLGQQAARQRAELEELRQQLEESSSALTRALRAEFEKGREEQERRHQMELNTLKQQLELERQAWEAGRTRKEEAWLLNREQELREEIRKGRDKEIELVIHRLEADMALAKEESEKAAESRIKRLRDKYEAELSELEQSERKLQERCSELKGQLGEAEGENLRLQGLVRQKERALEDAQAVNEQLSSERSNLAQVIRQEFEDRLAASEEETRQAKAELATLQARQQLELEEVHRRVKTALARKEEAVSSLRTQHEAAVKRADHLEELLEQHRRPTPSTK
B3: HAUS4 (protein, UniProt Q9H6D7 1-363)
chain: MASGDFCSPGEGMEILQQVCSKQLPPCNLSKEDLLQNPYFSKLLLNLSQHVDESGLSLTLAKEQAQAWKEVRLHKTTWLRSEILHRVIQELLVDYYVKIQDTNVTSEDKKFHETLEQRLLVTELMRLLGPSQEREIPPLLGLEKADLLELMPLSEDFVWMRARLQQEVEEQLKKKCFTLLCYYDPNSDADSETVKAAKVWKLAEVLVGEQQQCQDAKSQQKEQMLLLEKKSAAYSQVLLRCLTLLQRLLQEHRLKTQSELDRINAQYLEVKCGAMILKLRMEELKILSDTYTVEKVEVHRLIRDRLEGAIHLQEQDMENSRQVLNSYEVLGEEFDRLVKEYTVLKQATENKRWALQEFSKVYR

These molecules were tested against T1, CFAP53-bioGFP (human CFAP53 with C-terminal biotinylated GFP) (human) (assay: affinity purification with mass spectrometry; streptavidin pull-down (M-280 Streptavidin Dynabeads) of biotinylated GFP-tagged CFAP53 co-expressed with BirA from HEK293T lysates; lysis in 20 mM Tris pH 7.5, 150 mM NaCl, 1 mM MgCl2, 1% Triton X-100; 120 min at 4°C; five washes with 20 mM Tris pH 7.5, 150 mM NaCl, 0.1% Triton X-100; BirA alone as negative control; MS scores of both baits combined, hits filtered by SAINT and fold change).

binding, binds:
B1, B2, B3

The molecules below were run against T2, bioGFP-CFAP53 (human CFAP53 with N-terminal biotinylated GFP) (human) in the same assay as above.

binding, binds:
B1, B2, B3

Molecular target: T1, CFAP53-bioGFP (human CFAP53 with C-terminal biotinylated GFP) (human)
Assay: as above
Remark: another data set of the same source

binding, binds:
γ-tubulin (TUBG1) (from UniProt P23258 1-451), GPC6 (from UniProt Q96RT7 1-1819), NIN (from UniProt Q8N4C6 1-2090), PCM1 (from UniProt Q15154 1-2024), CEP290 (from UniProt O15078 1-2479), kinase NME7 (from UniProt Q9Y5B8 1-376), CDK5RAP2 (from UniProt Q96SN8 1-1893)

Molecular target: T2, bioGFP-CFAP53 (human CFAP53 with N-terminal biotinylated GFP) (human)
Assay: as above
Remark: another data set of the same source

binding, binds:
γ-tubulin (TUBG1) (from UniProt P23258 1-451), GPC6 (from UniProt Q96RT7 1-1819), NIN (from UniProt Q8N4C6 1-2090), PCM1 (from UniProt Q15154 1-2024), CEP290 (from UniProt O15078 1-2479), kinase NME7 (from UniProt Q9Y5B8 1-376), CDK5RAP2 (from UniProt Q96SN8 1-1893)
